Compounds and concentrations:
sunitinib: CCN(CC)CCNC(=O)c1c(C)[nH]c(/C=C2\C(=O)Nc3ccc(F)cc32)c1C at 2 µM
midostaurin: CO[C@@H]1[C@H](N(C)C(=O)c2ccccc2)C[C@H]2O[C@]1(C)n1c3ccccc3c3c4c(c5c6ccccc6n2c5c31)C(=O)NC4 at 0.4 µM
BI-D1870: CC(C)CCN1c2nc(Nc3cc(F)c(O)c(F)c3)ncc2N(C)C(=O)C1C (stereo not shown) at 1 µM
ENMD-2076: Cc1cc(Nc2cc(N3CCN(C)CC3)nc(/C=C/c3ccccc3)n2)n[nH]1 at 0.2 µM
U73122: COc1ccc2c(c1)CCC1C2CCC2(C)C(NCCCCCCN3C(=O)C=CC3=O)CCC12 (stereo not shown) at 2 µM
L-779450: Oc1cc(-c2nc(-c3ccccc3)[nH]c2-c2ccncc2)ccc1Cl at 1 µM
GW0742: Cc1cc(SCc2sc(-c3ccc(C(F)(F)F)c(F)c3)nc2C)ccc1OCC(=O)O at 10 µM

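The test systems are human melanoma cell lines, treated with a pair of drugs for 72 h and then stained and imaged. Each value is the cleaved-PARP-positive fraction of nuclei relative to DMSO-treated wells, in %, so that 100 equals the control and higher values mean more apoptosis. Every drug was used at one fixed concentration, the higher of two screened. These are primary screening values without error estimates. Basal and induced levels differ widely between cell lines.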 An unselected part of the screen is shown.

{"pair": "BI-D1870 and sunitinib", "A2058": 250, "MZ2-MEL": 116, "SK-MEL-28": 151, "UACC-257": 26.7, "A101D": 313, "LB2518-MEL": 96.7, "RVH-421": 421, "WM115": 213}
{"pair": "midostaurin and U73122", "A2058": 432, "MZ2-MEL": 188, "SK-MEL-28": 343, "UACC-257": 104, "A101D": 89.7, "LB2518-MEL": 177, "RVH-421": 318, "WM115": 334}
{"pair": "BI-D1870 and GW0742", "A2058": 124, "MZ2-MEL": 74.0, "SK-MEL-28": 92.5, "UACC-257": 43.4, "A101D": 123, "LB2518-MEL": 72.2, "RVH-421": 119, "WM115": 96.3}
{"pair": "BI-D1870 and U73122", "A2058": 85.2, "MZ2-MEL": 92.5, "SK-MEL-28": 53.3, "UACC-257": 40.9, "A101D": 70.9, "LB2518-MEL": 78.4, "RVH-421": 45.1, "WM115": 201}
{"pair": "ENMD-2076 and midostaurin", "A2058": 270, "MZ2-MEL": 203, "SK-MEL-28": 106, "UACC-257": 142, "A101D": 139, "LB2518-MEL": 216, "RVH-421": 225, "WM115": 333}
{"pair": "GW0742 and sunitinib", "A2058": 340, "MZ2-MEL": 95.4, "SK-MEL-28": 169, "UACC-257": 68.3, "A101D": 218, "LB2518-MEL": 266, "RVH-421": 114, "WM115": 126}
{"pair": "GW0742 and midostaurin", "A2058": 1130, "MZ2-MEL": 642, "SK-MEL-28": 165, "UACC-257": 82.6, "A101D": 256, "LB2518-MEL": 463, "RVH-421": 212, "WM115": 817}
{"pair": "sunitinib and L-779450", "A2058": 859, "MZ2-MEL": 32.4, "SK-MEL-28": 544, "UACC-257": 92.4, "A101D": 201, "LB2518-MEL": 201, "RVH-421": 104, "WM115": 415}
{"pair": "midostaurin and BI-D1870", "A2058": 209, "MZ2-MEL": 122, "SK-MEL-28": 243, "UACC-257": 119, "A101D": 374, "LB2518-MEL": 103, "RVH-421": 227, "WM115": 356}
{"pair": "ENMD-2076 and BI-D1870", "A2058": 161, "MZ2-MEL": 76.5, "SK-MEL-28": 47.3, "UACC-257": 72.2, "A101D": 161, "LB2518-MEL": 93.6, "RVH-421": 98.0, "WM115": 203}
{"pair": "GW0742 and L-779450", "A2058": 102, "MZ2-MEL": 80.1, "SK-MEL-28": 169, "UACC-257": 67.9, "A101D": 192, "LB2518-MEL": 71.1, "RVH-421": 227, "WM115": 176}
{"pair": "GW0742 and ENMD-2076", "A2058": 90.8, "MZ2-MEL": 196, "SK-MEL-28": 81.4, "UACC-257": 27.8, "A101D": 43.5, "LB2518-MEL": 56.6, "RVH-421": 87.7, "WM115": 52.4}
{"pair": "U73122 and sunitinib", "A2058": 316, "MZ2-MEL": 192, "SK-MEL-28": 199, "UACC-257": 74.8, "A101D": 369, "LB2518-MEL": 80.1, "RVH-421": 184, "WM115": 367}
{"pair": "sunitinib and midostaurin", "A2058": 926, "MZ2-MEL": 184, "SK-MEL-28": 40.9, "UACC-257": 53.5, "A101D": 165, "LB2518-MEL": 181, "RVH-421": 53.5, "WM115": 93.2}
{"pair": "U73122 and GW0742", "A2058": 159, "MZ2-MEL": 108, "SK-MEL-28": 80.4, "UACC-257": 41.6, "A101D": 58.2, "LB2518-MEL": 109, "RVH-421": 58.0, "WM115": 53.0}
{"pair": "L-779450 and BI-D1870", "A2058": 321, "MZ2-MEL": 55.8, "SK-MEL-28": 88.3, "UACC-257": 71.4, "A101D": 144, "LB2518-MEL": 90.3, "RVH-421": 205, "WM115": 152}
{"pair": "L-779450 and U73122", "A2058": 249, "MZ2-MEL": 27.6, "SK-MEL-28": 99.6, "UACC-257": 48.8, "A101D": 196, "LB2518-MEL": 70.2, "RVH-421": 179, "WM115": 397}
{"pair": "L-779450 and midostaurin", "A2058": 445, "MZ2-MEL": 263, "SK-MEL-28": 111, "UACC-257": 28.2, "A101D": 218, "LB2518-MEL": 197, "RVH-421": 161, "WM115": 2690}

Some entries from above, unchanged:

Pair,A2058,MZ2-MEL,SK-MEL-28,UACC-257,A101D,LB2518-MEL,RVH-421,WM115
GW0742 and ENMD-2076,90.8,196,81.4,27.8,43.5,56.6,87.7,52.4
ENMD-2076 and BI-D1870,161,76.5,47.3,72.2,161,93.6,98.0,203

Data from the primary screen of doi:10.1371/journal.pone.0140310, rounded.